For at least one compound, name, drawing or mass did not settle the structure.
Biological target: Jak2 tyrosine kinase (Homo sapiens (Human), UniProt O60674)
Assay: Jak2 Tyrosine Kinase Assay
Assay type: biochemical
Conditions: selectivity for Btk over Jak2; larger value = more selective for Btk

Amino acid sequences for entries named in this document (tags omitted). A change or cut given only in a name is not applied to a line headed by its entry.
UniProt O60674: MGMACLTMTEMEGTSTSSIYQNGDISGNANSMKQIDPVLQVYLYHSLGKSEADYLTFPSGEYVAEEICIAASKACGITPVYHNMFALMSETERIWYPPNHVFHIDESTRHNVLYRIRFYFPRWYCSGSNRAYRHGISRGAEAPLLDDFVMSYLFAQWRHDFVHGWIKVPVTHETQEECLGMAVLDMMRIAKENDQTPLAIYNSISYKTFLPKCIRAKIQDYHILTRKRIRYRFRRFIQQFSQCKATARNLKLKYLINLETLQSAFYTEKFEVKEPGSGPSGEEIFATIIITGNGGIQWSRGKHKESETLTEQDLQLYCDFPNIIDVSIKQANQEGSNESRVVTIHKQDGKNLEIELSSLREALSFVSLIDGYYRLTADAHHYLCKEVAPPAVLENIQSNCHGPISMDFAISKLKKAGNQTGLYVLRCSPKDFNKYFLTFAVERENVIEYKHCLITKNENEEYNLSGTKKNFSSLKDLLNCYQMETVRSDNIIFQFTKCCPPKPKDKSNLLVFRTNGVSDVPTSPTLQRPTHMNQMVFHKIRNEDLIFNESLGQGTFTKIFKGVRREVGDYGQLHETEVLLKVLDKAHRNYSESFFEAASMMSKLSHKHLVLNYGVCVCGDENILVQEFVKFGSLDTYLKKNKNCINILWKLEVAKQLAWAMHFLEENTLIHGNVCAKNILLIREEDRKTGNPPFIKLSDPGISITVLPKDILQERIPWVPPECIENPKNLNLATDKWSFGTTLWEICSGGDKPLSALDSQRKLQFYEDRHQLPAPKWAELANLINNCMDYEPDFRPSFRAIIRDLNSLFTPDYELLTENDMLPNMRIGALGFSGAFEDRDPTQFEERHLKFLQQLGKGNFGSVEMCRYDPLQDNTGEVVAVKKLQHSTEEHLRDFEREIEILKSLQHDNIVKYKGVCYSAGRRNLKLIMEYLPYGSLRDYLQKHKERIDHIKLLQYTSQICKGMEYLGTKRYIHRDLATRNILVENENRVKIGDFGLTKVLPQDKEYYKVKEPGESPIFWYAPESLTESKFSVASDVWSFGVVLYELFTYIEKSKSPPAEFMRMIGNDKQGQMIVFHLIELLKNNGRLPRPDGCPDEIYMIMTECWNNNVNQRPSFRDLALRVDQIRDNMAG

Cc1c(-c2ccc(C(N)=O)c3[nH]c4cc(N(C)C)ccc4c23)cccc1-n1c(=O)cc2c(F)cccn2c1=O [Example 29, 7-(dimethylamino)-4-(3-(5-fluoro-1,3-dioxo-1H-pyrido[1,2-c]pyrimidin-2(3H)-yl)-2-methylphenyl)-9H-carbazole-1-carboxamide]
Ratio of Jak2/Btk IC50 values: 310
